## Library screen at single concentrations

Sequences of proteins named here, by UniProt entry; tags and fusion partners are left off. Residues count along the entry.
UniProt P9WNZ1, whole entry: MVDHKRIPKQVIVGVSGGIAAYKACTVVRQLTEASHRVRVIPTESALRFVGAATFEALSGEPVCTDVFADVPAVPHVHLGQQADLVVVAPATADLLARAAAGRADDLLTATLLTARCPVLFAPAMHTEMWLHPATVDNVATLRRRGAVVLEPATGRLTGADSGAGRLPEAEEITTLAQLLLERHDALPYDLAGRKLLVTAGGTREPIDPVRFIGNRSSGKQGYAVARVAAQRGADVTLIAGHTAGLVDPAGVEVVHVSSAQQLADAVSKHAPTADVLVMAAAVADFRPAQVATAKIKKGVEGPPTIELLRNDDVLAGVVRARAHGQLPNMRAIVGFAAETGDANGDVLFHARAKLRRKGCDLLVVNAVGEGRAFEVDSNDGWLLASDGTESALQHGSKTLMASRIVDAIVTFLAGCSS
UniProt I6X8D2, whole entry: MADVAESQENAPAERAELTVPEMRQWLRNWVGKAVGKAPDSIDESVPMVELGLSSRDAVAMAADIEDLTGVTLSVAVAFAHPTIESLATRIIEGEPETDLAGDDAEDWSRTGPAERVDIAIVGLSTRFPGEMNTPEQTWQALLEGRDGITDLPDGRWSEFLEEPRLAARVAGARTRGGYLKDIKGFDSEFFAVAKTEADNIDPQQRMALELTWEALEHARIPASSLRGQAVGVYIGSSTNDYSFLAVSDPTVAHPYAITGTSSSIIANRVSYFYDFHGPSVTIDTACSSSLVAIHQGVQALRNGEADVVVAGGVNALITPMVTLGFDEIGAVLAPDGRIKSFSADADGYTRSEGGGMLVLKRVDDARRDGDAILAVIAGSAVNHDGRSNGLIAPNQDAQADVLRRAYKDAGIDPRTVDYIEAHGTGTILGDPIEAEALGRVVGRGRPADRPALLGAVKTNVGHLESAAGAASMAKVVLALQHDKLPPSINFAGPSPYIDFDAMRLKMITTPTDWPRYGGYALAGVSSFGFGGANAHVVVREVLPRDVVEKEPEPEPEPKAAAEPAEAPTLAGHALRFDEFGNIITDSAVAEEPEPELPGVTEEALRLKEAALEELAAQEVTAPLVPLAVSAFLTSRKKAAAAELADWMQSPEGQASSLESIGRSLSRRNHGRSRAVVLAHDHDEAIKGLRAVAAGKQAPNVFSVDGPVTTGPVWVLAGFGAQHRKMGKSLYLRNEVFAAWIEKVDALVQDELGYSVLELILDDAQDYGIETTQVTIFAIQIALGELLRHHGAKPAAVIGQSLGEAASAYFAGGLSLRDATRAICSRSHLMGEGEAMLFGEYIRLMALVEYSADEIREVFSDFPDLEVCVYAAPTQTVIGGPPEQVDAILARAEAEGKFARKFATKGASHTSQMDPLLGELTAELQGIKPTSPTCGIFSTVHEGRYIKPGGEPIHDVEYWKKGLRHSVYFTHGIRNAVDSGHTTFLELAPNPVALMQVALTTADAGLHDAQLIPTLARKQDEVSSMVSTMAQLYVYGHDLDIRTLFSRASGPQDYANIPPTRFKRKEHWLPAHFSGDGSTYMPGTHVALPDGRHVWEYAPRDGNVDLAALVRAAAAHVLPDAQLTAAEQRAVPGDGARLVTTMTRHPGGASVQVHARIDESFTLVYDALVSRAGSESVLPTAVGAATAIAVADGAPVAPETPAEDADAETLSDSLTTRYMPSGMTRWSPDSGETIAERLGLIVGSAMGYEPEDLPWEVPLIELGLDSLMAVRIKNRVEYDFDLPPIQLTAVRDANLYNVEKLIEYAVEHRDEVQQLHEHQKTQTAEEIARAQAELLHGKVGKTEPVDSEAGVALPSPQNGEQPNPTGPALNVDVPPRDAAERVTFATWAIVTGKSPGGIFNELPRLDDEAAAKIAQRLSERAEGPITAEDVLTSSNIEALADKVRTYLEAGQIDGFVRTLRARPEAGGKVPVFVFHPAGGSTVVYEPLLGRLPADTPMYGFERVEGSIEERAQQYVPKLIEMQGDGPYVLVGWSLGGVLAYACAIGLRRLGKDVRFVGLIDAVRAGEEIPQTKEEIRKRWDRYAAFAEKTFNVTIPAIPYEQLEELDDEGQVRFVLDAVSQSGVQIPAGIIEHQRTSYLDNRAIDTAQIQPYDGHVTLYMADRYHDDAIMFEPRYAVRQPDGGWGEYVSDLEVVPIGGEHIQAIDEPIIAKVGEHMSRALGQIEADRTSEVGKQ
UniProt P9WPC5, whole entry: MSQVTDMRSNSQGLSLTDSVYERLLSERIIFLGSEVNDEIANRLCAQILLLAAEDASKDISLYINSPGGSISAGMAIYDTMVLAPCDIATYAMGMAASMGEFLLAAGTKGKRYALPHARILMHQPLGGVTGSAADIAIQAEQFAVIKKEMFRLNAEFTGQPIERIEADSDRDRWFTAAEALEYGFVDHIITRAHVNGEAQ
UniProt P9WPC3, whole entry partner: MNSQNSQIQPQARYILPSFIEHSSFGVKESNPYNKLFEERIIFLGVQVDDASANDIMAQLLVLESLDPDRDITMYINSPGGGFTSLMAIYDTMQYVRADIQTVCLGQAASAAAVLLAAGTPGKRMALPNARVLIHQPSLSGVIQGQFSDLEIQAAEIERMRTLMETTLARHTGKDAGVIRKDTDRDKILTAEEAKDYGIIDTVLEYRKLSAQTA
UniProt A4I591, 1-473: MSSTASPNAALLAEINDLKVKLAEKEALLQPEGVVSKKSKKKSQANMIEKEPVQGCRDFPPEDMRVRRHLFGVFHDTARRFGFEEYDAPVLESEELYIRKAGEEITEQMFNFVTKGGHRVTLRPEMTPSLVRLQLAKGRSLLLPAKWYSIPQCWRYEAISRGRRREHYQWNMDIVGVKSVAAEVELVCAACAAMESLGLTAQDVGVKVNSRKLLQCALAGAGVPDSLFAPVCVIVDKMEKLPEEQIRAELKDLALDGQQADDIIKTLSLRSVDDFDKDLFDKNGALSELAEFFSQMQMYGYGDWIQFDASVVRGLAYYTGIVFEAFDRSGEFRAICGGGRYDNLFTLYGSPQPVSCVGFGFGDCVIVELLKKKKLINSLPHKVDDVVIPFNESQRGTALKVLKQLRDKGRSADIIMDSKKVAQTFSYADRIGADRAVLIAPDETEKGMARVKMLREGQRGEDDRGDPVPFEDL
UniProt P9WFT3, whole entry: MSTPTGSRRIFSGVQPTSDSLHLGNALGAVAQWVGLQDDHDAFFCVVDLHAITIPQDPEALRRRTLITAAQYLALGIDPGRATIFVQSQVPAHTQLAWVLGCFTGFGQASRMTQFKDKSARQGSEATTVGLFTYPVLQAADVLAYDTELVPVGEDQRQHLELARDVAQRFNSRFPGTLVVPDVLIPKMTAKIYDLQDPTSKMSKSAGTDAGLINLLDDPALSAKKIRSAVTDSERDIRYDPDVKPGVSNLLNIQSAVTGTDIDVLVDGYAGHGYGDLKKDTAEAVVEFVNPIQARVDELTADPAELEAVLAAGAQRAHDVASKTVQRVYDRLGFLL

CoaBC: 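Enzyme assay of CoaBC with a phosphate dye (Biomol Green) read at 650 nm. Target: Coenzyme A biosynthesis protein CoaBC, Mycobacterium tuberculosis (UniProt P9WNZ1). Concentration: 30 µM. Higher reads as stronger inhibition, judged from the few compounds that gave an IC50. Most strong results did not repeat in a second test. About 67,000 compounds were tested under these conditions; 0.06% (about 40) showed 50% or more at least once.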
Pks13 thioesterase: 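Enzyme assay of the thioesterase domain of polyketide synthase 13; the read-out is not stated. Target: Polyketide synthase Pks13, Mycobacterium tuberculosis (UniProt I6X8D2). Concentration: 30 µM. Higher reads as stronger inhibition (inferred from which compounds were picked for retests). Of about 67,000 compounds tested this way, about 300 (0.46%) reached 50% or more in at least one test.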
ClpP1P2: 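Protease assay of ClpP1P2, read by the AMC dye that it sets free. Target: ClpP1P2, Mycobacterium tuberculosis (UniProt P9WPC5 and UniProt P9WPC3). Concentration: 50 µM. Direction is inferred from only a few compounds that gave an IC50; most scored high, so higher reads as stronger inhibition. Most other retested compounds had strongly negative values. About 69,000 compounds were tested under these conditions; 0.015% (about 10) showed 50% or more at least once.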
Toxoplasma: 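Assay of Toxoplasma gondii numbers, read through their beta-galactosidase reporter with a colour substrate. Compounds at 10 µM. The record gives no direction; the compounds picked for IC50 retests had high values, so higher reads as fewer parasites. Size under these conditions: about 67,000 compounds, about 260 of them at 50% or above in at least one test.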
LiHisRS: 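Enzyme assay of histidyl-tRNA synthetase; the read-out is not stated. Target: Histidine-tRNA ligase, Leishmania infantum (UniProt A4I591). Tested at 30 µM. Direction is inferred from retests: higher values go with stronger inhibition. The assay is labelled LdHisRS but filed under L. infantum. Size under these conditions: about 69,000 compounds, about 410 of them at 50% or above in at least one test.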
MtTrpRS: 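Enzyme assay of tryptophanyl-tRNA synthetase; the read-out is not stated. Target: Tryptophan-tRNA ligase, Mycobacterium tuberculosis (UniProt P9WFT3). Concentration: 10 µM. Direction is not recorded; retested compounds ran higher, which suggests that high means inhibition. Size under these conditions: about 65,000 compounds, about 64 of them at 50% or above in at least one test.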

Results are given as percent effect.
The record does not define 0% and 100%; most values in the screen are far below 50% and negative numbers occur (in some assays of this library far below -100).
This is an unselected part of the compounds tested.
A dash means the value is not listed here; it may have been measured.

| # | Compound | CoaBC | Pks13 thioesterase | ClpP1P2 | Toxoplasma | LiHisRS | MtTrpRS |
|---|---|---|---|---|---|---|---|
| 1 | `Cc1ccnc(OCC(=O)N2CCN(c3ncccn3)CC2)n1` | -9.921 | 5.649 | -2.811 | -2.774 | -2.778 | -8.992 |
| 2 | `Cn1cc(C(=O)CC2CCCN2C(=O)c2ccc(Cl)cn2)cn1` (centres undefined) | -4.268 | -5.955 | 2.44 | 4.173 | 13.19 | -0.2649 |
| 3 | `CCOc1cc(C(=O)N2CC=C(c3ccc(O)cc3)CC2)ccn1` | 9.89 | -25.45 | -4.956 | -19.42 | 8.571 | 1.32 |
| 4 | `COc1cccc(CN(C)c2ncc(C(N)=O)cc2Cl)c1` | 3.502 | 19.69 | 6.8 | -1.136 | 17.12 | -1.33 |
| 5 | `COC(=O)CNC(=O)c1nc(Cl)sc1C(C)C` | -5.189 | -1.238 | 2.625 | 4.113 | 23.08 | -0.3079 |
| 6 | `COCCN1CCC2(CC1)CCN(Cc1ccccn1)CC2` | 3.99 | - | 0.323 | - | 13.46 | -6.25 |
| 7 | `CCC1=N[C@@]2(CC[C@@H]3CN(Cc4ccccc4F)C[C@@H]32)C(=O)N1` | 1.667 | -10.68 | 3.271 | - | 14.53 | -2.045 |
| 8 | `O=C(Cn1cnc2sccc2c1=O)NCCc1nnc2ccccn12` | 1.139 | 3.513 | -13.39 | -18.24 | 2.5 | 2.305 |
| 9 | `CN(CC(=O)NCC(=O)Nc1ccc(F)cc1)Cc1cccs1` | 1.38 | -3.542 | 11.44 | -3.384 | 15.66 | -1.683 |
| 10 | `CS(=O)(=O)NC1CCN(C(=O)c2cnc(-c3cccnc3)nc2)CC1` | -0.6053 | -2.193 | -17.15 | -1.213 | 14.13 | 2.644 |
| 11 | `Cn1cnc(S(=O)(=O)N2CCO[C@H]3[C@H](OCC4CC4)CC[C@@H]32)c1` | 1.018 | -28.27 | 0.9356 | - | 5.263 | -5.951 |
| 12 | `COCCN1CCC(CNC(=O)c2c[nH]c(=O)c(Cl)c2)CC1` | -6.762 | 5.242 | 1.411 | -9.488 | 21.43 | -2.708 |
| 13 | `O=C(NCC1CC1)[C@@H]1CCO[C@@H]2CCN(c3ncccn3)C[C@@H]21` | 0.3226 | 3.649 | -23.21 | - | 2.778 | -5.669 |
| 14 | `Cc1cnn(CCC(=O)NS(=O)(=O)N2CCc3ccccc32)c1` | -10.81 | -13.19 | 5.922 | 1.337 | 7.895 | 6.535 |
| 15 | `Cc1nc(Oc2ccccc2Cl)sc1C(=O)O` | -0.4843 | -12.76 | -12.15 | -2.916 | 13.04 | 1.328 |
| 16 | `Cc1ccc(CN2CCC3(CCN(Cc4ccncc4)CC3)CC2)cc1` | -4.684 | -16.31 | 2.433 | 23.6 | 15.79 | 2.164 |
| 17 | `CCc1nc(CNCC2(C(N)=O)CCOCC2)cs1` | -8.249 | -19.55 | 11.86 | 4.589 | 20.51 | -0.6518 |
| 18 | `CCC[C@H]1CN(C(=O)CCn2ccccc2=O)C[C@@H]1NS(C)(=O)=O` | 6.25 | -31.09 | 0.8208 | -0.306 | 37.5 | 0.3096 |
| 19 | `Cc1cnn(CC2CCCCN2CCCS(N)(=O)=O)c1` (centres undefined) | -0.1304 | -0.6745 | 10.25 | 7.913 | 12.16 | -2.956 |
| 20 | `CCc1ncnc(N2CCOCC2C2CC2)c1F` (centres undefined) | -0.9709 | 4.179 | -0.2407 | 2.368 | 2.381 | -2.736 |
| 21 | `CCc1ccc(C(=O)N(CC)Cc2ccoc2)cc1S(C)(=O)=O` | 4.073 | -13.46 | 0.6168 | 2.761 | 8.824 | -5.055 |
| 22 | `CC(C)N1CCCC(C(=O)N2CCN(c3cnn(C)c(=O)c3)CC2)C1` (centres undefined) | -3.64 | - | 16.08 | -4.974 | 5 | 2.292 |
| 23 | `CN1CCC(NC(=O)Cc2csc(C(C)(C)C)n2)CC1` | 0.7453 | - | 1.972 | -8.568 | 14.29 | -0.4955 |
| 24 | `CCOc1ccc(CN(CCOC)C(=O)c2ccncc2Cl)cc1` | 3.831 | -8.226 | 6.038 | -10.22 | -3.03 | -0.6054 |
| 25 | `COCC1CN(C(=O)COc2ccccc2C)Cc2ncn(C)c21` (centres undefined) | - | -29.47 | -6.497 | - | 12.07 | -4.854 |
| 26 | `Cl.OC[C@H]1CC[C@]2(CC1)CN(Cc1ccccc1F)Cc1ccccc1O2` | - | - | - | 15.05 | - | - |
| 27 | `Cc1ccc(N2CCCN(C(=O)C3CCCO3)CC2)nn1` (centres undefined) | 6.579 | -1.039 | -9.586 | -19.53 | 12.5 | -5.677 |
| 28 | `CC(C)(C)Cc1noc2ncc(C(=O)N3CCSCC3)cc12` | 5.683 | -5.848 | -3.133 | -15.65 | 9.677 | -3.306 |
| 29 | `CCC(C)N(CCOC)Cc1nc2c(cnn2C)c(=O)[nH]1` (centres undefined) | -1.579 | -23.95 | -3.853 | 19.33 | 0.9259 | 11.36 |
| 30 | `Cc1cncc(C(=O)N2CCCCC2c2nc(C)cs2)c1` (centres undefined) | 2.169 | -9.582 | 17.71 | -0.5294 | 8.219 | 3.437 |
| 31 | `CCc1ccc(C(=O)N2CCCC(n3cncn3)C2)o1` (centres undefined) | -6.751 | -6.381 | -5.595 | -3.199 | 10.58 | -7.583 |
| 32 | `CC(C)(C)NC(=O)c1ccn(COc2ccccc2Cl)n1` | 1.531 | 15.81 | 7.557 | -5.126 | 8.642 | 0.6365 |
| 33 | `c1ccc(-c2nnc3n2CCN(Cc2ccc4c(c2)OCCO4)C3)cc1` | 7.846 | -29.74 | -2.523 | -16.32 | 18.35 | 11.71 |
| 34 | `COc1cc(CNC(C)Cn2cccn2)cc(Cl)c1OC.Cl` (centres undefined) | - | - | - | 1.771 | - | - |
| 35 | `CC(NC(=O)c1ccoc1)C(=O)N(C)Cc1ccsc1` (centres undefined) | 6.129 | -30.31 | -4.912 | 1.427 | 17.11 | 0.2742 |
| 36 | `Cc1noc(CCCNC(=O)C2CSCN2C(=O)C(C)(C)C)n1` (centres undefined) | 6.083 | -16.47 | 6.297 | -20.8 | 8.889 | -1.67 |
| 37 | `CCN(CC)C(=O)Cn1ccc2cc(NC(=O)C3CC3)ccc21` | 5.053 | -16.92 | 7.995 | 2.399 | 7.2 | 0.4717 |
| 38 | `O=C(c1ccc(COc2ccccc2Cl)o1)N1N=CCC1(O)C(F)(F)F` (centres undefined) | -2.132 | 37.49 | -2.318 | 45.92 | 0 | -0.75 |
| 39 | `CN(C)CCN(C)C(=O)Cc1ccc2c(c1)OCCO2.O=C(O)CC(O)(CC(=O)O)C(=O)O` | - | - | - | -8.992 | - | - |
| 40 | `CCNC(=O)CNS(=O)(=O)c1cc(Br)ccc1F` | 5.03 | -27.87 | 1.32 | 8.618 | 20.51 | -2.7 |
| 41 | `Cc1cnc(CN(Cc2ccc(C#N)cc2F)C2CCN(C)C2)o1` (centres undefined) | -12.1 | -6.786 | 11.9 | 5.522 | 22.81 | -5.206 |
| 42 | `[H][C@@]12CS(=O)(=O)C[C@]1([H])N(C(=O)c1cc(C(C)C)on1)CCN2C(=O)C(C)C` | - | - | - | -7.328 | - | - |
| 43 | `CCn1cc(C2CCN(Cc3ccnc(N(C)C)c3)CC2)cn1` | 3.661 | -23.59 | -2.85 | 2.074 | 4.225 | -4.095 |
| 44 | `[H][C@@]12CN(C(=O)c3ccoc3COc3ccc(C)cc3)C[C@]1([H])[C@H]2CN(C)C` | - | - | - | 0.7806 | - | - |
| 45 | `Cc1cnc(N2CCCn3c(nnc3Cn3cccn3)C2)nc1` | -2.083 | 9.867 | 8.774 | 0 | 9.402 | 10.79 |
| 46 | `CCOCC1CN(C(=O)c2cscn2)Cc2cn(C)nc21.O=C(O)C(F)(F)F` (centres undefined) | - | - | - | -11.59 | - | - |
| 47 | `CCn1nc(C)c(CNC(=O)NCC(C)(O)c2ccsc2)c1C` (centres undefined) | 5.063 | -23.94 | -3.845 | 1.89 | 14.29 | -5.374 |
| 48 | `Cc1ccc2c(n1)N(CCn1cccn1)CCN(C1CCOCC1)C2.O=C(O)C(F)(F)F.O=C(O)C(F)(F)F` | - | - | - | 14.7 | - | - |
| 49 | `CC(C)NC(=O)c1ccc2c(c1)nc1n2CCN(c2ccccc2)C1` | 2.826 | 13.51 | 8.29 | -3.467 | 42.72 | -0.402 |
| 50 | `O=C1CCC(C(=O)NCc2nn(-c3ccccc3)c3c2CCC3)CN1` (centres undefined) | 3.109 | -4.146 | 11.73 | -2.03 | 4.255 | -3.935 |
| 51 | `Cc1cnn(CC2CN(CCS(C)(=O)=O)CCO2)c1` (centres undefined) | 1.381 | -11.41 | 6.138 | 3.813 | 6.061 | -4.155 |
| 52 | `CNc1nc(N2CCC3(CCCNC3=O)C2)nc2c1CCC2` (centres undefined) | 12.96 | -8.818 | -8.372 | 6.466 | 0 | -1.639 |
| 53 | `Cc1cc(N2CCCN(C(=O)Cc3cc(F)cc(F)c3)CC2)ccn1` | 5.366 | -7.339 | -16.24 | 8.816 | 11.2 | 1.053 |

3 of the entries, repeated:

CCn1cc(C2CCN(Cc3ccnc(N(C)C)c3)CC2)cn1 read CoaBC: 3.661%; Pks13 thioesterase: -23.59%; ClpP1P2: -2.85%; Toxoplasma: 2.074%; LiHisRS: 4.225%; MtTrpRS: -4.095%.
Cl.OC[C@H]1CC[C@]2(CC1)CN(Cc1ccccc1F)Cc1ccccc1O2 read Toxoplasma: 15.05%.
CCOCC1CN(C(=O)c2cscn2)Cc2cn(C)nc21.O=C(O)C(F)(F)F (centres undefined) read Toxoplasma: -11.59%.

The values are deposited in ChEMBL (CHEMBL3988442, “University of Dundee, Small-Polar-MMV Screening Library” (2021)).